This is an account of results in PMC3447885.

This assay deals with MSL2 CXC domain construct CXC-3 (residues 520-570, C560G) (D. melanogaster) (UniProt P50534). Kind of assay: native MS; CXC-3 exchanged into 200 mM ammonium acetate, electrospray ionization on a Q-Star instrument, conditions that preserve the native protein structure; both purified.

These are yes or no findings as the source states them, for the method shown.

B1: MSL2 CXC domain construct CXC-3 (residues 520-570, C560G) (domain or fragment, UniProt P50534 520-570)
chain: SPPKPKCRCGISGSSNTLTTCRNSRCPCYKSYNSCAGCHCVGCKNPHKEDYV
Regarding B1, the binding result is given as “no binding”.
